Tested on: PKCβII mRNA
Test: RT-PCR of PKCβII mRNA in synchronized A10 cells
Assay type: cell-based, rat
Conditions: 30 minutes pre-incubation, then 25 mM glucose
Method: Reverse Transcriptase-Polymerase Chain Reaction. […] The upstream sense primer corresponded to the C4 kinase domain common to both PKCβI and PKCβII (5′ […] 3′) [SEQ ID NO:4] and the downstream antisense primer was specific for PKCβI (5′ […] 3′) [SEQ ID NO:5] (Chalfant et al., 1995, pp.13326-13332). These primers detect inclusion of the PKCβII exon in the mature mRNA as well as PKCβI mRNA. Sense and antisense primers for β-actin (#5402-3) were obtained from Clonetech. PCR was performed using ampliTaq Gold DNA polymerase from PERKIN ELMER (#N808-0240) on 10% of the reverse transcriptase reaction product. Following 35 cycles of amplification in a BIOMETRA Trioblock thermocycler (PKCβI and -βII: 95° C., 30 sec; 64° C., 2 min for 35 cycles; and for β-actin: 94° C., 1 min; 58° C., 1 min; and 72° C., 3 min for 35 cycles), 25% of the PCR reaction was resolved on a 1.2% agarose gel. Bands were observed under UV light and photographed.
Thus, the PKCβII transcript contains the PKCβI exon with the poly A tail and a common 3′ untranslated region (FIG. 25). Inclusion of the alternatively spliced exon encodes a stop codon such that the PKCβI exon facilitates poly-adenylation but the exon is not translated, thereby generating PKCβII protein. […] Although, this assay is semi-quantitative, the ration of PKCβII to PKCβI mRNA was about 2 to 1.

CO[C@@H]1[C@H](N(C)C(=O)c2ccccc2)C[C@H]2O[C@]1(C)n1c3ccccc3c3c4c(c5c6ccccc6n2c5c31)C(=O)NC4 [CG 41251]
effect of inhibitor on glucose-induced destabilization of PKCβII mRNA: blocked

Reference: US8008071B2 (University of South Florida, priority 1999, dated 2011)
